Results are given in words; binding and its absence hold for the method and conditions named. Binding seen in cells or lysates may run through a third protein. Some entries that bind do so weakly or less than the wild type. Where a sequence is shown, tags or fusion partners need not be part of it.
Target: T1, GST-ZNF608 (aa 1-600) (human) (UniProt Q9ULD9)
T1 sequence: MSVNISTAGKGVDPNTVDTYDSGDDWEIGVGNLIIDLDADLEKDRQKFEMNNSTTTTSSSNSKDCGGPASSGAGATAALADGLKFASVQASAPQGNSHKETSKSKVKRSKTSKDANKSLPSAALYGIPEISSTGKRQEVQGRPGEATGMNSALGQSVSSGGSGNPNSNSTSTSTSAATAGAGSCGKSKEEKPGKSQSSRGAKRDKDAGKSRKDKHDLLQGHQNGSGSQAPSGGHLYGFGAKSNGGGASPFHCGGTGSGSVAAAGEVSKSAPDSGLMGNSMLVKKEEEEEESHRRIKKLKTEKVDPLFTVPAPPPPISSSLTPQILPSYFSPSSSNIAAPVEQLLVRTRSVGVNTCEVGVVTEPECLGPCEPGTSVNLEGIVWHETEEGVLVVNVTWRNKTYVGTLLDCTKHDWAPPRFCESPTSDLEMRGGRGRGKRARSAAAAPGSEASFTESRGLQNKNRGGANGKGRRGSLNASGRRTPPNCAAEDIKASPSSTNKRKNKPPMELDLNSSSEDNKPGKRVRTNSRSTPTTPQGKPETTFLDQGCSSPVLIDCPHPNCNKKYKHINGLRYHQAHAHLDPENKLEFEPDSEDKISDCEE
Assay: pull-down; GST-ZNF608 (aa 1-600) mixed with radiolabeled C-terminus of human Atrophin-1 (Figure 5H); only the target purified

binding: binds
B1: human Atrophin-1 aa 600-1191 (domain or fragment, UniProt P54259 600-1190)
chain: PFPPVPTVTTSSATLSTVIATVASSPAGYKTASPPGPPPYGKRAPSPGAYKTATPPGYKPGSPPSFRTGTPPGYRGTSPPAGPGTFKPGSPTVGPGPLPPAGPSGLPSLPPPPAAPASGPPLSATQIKQEPAEEYETPESPVPPARSPSPPPKVVDVPSHASQSARFNKHLDRGFNSCARSDLYFVPLEGSKLAKKRADLVEKVRREAEQRAREEKEREREREREKEREREKERELERSVKLAQEGRAPVECPSLGPVPHRPPFEPGSAVATVPPYLGPDTPALRTLSEYARPHVMSPGNRNHPFYVPLGAVDPGLLGYNVPALYSSDPAAREREREARERDLRDRLKPGFEVKPSELEPLHGVPGPGLDPFPRHGGLALQPGPPGLHPFPFHPSLGPLERERLALAAGPALRPDMSYAERLAAERQHAERVAALGNDPLARLQMLNVTPHHHQHSHIHSHLHLHQQDAIHAASASVHPLIDPLASGSHLTRIPYPAGTLPNPLLPHPLHENEVLRHQLFAAPYRDLPASLSAPMSAAHQLQAMHAQSAELQRLALEQQQWLHAHHPLHSVPLPAQEDYYSHLKKESDKPL
modifications: radiolabeled

From paper PMC1868043
